No constants are given. Whether binding was seen depends on the method and setting. Binding seen in cells or lysates may run through a third protein. Some entries that bind do so weakly or less than the wild type.
Molecular target: forkhead box O1 class (FOXO1) (mouse (endogenous in HL-1)) (UniProt Q9R1E0)
Experiment: co-IP; HL-1 cells, sham or infected with CVB3 for 48 h; lysate precipitated with anti-FOXO1 antibody (Pierce Classic Magnetic IP/Co-IP Kit), blotted for the partner

Sequences of proteins named here, by UniProt entry; tags and fusion partners are left off.
UniProt Q9R1E0: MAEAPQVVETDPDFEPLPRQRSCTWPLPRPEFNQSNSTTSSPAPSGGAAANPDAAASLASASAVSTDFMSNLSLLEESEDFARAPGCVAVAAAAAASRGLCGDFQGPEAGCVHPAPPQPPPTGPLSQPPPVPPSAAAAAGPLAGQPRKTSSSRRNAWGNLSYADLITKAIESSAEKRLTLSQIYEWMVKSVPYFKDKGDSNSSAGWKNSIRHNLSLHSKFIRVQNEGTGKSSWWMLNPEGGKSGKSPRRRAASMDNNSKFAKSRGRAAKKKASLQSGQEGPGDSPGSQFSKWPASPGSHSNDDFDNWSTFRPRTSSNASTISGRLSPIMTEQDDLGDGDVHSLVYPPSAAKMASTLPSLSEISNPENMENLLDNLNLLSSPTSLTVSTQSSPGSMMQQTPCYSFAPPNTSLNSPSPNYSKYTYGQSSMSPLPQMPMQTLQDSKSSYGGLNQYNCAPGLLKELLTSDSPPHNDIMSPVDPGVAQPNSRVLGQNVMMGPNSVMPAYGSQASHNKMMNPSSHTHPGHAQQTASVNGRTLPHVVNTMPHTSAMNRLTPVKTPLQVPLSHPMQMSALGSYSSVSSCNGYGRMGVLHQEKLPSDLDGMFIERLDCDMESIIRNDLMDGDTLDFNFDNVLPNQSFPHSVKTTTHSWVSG
UniProt P45481: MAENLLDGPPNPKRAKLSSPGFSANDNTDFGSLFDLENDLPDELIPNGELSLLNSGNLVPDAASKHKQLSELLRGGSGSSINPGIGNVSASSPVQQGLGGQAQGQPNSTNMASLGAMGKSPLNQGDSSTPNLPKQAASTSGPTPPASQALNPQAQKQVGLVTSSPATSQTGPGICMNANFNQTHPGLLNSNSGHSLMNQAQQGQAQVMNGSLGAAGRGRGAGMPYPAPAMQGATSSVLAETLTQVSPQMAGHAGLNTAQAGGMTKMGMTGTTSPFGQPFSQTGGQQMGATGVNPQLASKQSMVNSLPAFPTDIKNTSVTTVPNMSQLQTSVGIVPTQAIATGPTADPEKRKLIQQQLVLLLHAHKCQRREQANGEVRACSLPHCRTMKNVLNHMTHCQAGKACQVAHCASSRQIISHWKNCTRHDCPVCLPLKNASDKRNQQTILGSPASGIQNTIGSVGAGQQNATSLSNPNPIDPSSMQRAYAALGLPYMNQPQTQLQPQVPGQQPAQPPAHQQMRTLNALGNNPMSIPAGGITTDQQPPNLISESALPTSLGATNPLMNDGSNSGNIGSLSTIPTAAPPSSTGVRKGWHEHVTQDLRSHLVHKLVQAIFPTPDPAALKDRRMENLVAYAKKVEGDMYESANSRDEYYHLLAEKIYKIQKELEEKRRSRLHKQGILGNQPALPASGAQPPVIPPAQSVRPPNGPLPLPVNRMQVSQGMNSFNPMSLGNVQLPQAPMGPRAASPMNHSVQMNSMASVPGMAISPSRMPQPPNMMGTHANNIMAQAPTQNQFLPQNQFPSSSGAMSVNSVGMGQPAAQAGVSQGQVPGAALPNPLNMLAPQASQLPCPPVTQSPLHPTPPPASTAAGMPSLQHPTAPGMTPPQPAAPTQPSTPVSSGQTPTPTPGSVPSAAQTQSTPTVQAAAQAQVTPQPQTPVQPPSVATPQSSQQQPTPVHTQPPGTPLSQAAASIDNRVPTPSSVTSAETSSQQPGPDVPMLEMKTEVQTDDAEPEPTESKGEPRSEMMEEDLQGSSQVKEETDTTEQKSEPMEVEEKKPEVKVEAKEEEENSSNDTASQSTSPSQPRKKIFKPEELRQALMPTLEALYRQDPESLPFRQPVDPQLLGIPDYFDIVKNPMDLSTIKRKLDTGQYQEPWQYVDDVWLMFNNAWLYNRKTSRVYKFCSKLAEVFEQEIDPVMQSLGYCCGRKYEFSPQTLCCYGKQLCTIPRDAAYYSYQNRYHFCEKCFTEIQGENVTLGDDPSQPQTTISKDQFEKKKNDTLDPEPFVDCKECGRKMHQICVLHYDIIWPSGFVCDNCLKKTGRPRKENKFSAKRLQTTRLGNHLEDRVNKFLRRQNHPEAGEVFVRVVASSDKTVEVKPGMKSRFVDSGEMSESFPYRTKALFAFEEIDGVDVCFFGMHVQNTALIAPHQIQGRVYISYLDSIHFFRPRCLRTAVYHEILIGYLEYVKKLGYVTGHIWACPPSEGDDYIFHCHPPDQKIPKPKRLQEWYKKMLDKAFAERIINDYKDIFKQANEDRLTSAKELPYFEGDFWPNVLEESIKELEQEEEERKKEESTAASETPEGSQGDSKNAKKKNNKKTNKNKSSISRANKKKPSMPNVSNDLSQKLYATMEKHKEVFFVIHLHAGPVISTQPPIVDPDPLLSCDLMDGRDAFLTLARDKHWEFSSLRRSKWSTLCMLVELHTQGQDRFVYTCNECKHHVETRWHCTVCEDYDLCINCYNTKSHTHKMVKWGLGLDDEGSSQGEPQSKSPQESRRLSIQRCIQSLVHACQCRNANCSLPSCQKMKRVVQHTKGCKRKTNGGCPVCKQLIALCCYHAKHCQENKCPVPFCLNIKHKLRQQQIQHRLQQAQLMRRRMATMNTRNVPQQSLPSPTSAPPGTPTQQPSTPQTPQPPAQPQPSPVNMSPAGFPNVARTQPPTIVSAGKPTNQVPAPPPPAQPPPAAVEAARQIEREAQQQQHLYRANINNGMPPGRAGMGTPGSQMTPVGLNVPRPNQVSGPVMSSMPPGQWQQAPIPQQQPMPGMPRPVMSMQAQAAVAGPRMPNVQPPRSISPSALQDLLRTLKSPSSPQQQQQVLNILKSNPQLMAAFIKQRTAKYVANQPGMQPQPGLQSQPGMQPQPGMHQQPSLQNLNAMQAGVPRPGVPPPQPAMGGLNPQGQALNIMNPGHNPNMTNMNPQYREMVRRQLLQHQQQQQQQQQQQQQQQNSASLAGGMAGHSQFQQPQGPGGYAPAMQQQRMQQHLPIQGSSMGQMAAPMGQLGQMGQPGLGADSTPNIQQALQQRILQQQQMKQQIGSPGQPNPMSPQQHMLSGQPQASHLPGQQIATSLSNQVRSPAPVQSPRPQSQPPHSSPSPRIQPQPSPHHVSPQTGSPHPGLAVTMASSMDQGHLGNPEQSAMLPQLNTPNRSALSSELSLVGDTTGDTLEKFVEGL

CBP (from UniProt P45481 1-2441) (enzyme)
binding: binds
